{"source": "PubChem BioAssay AID485314", "about": "(National Center for Advancing Translational Sciences (NCATS), 2010)", "note": "Screen size: about 340,000 compounds; about 4,500 (1.3%) were called active. The inconclusive results got no clear call from the source; some entries with a clear call stand among them for comparison. Calls come from the whole dose curve; as a rule, active = well fitted inhibition curve with a large enough effect; inconclusive = small, poorly fitted or top-dose-only effect, or another doubt; inactive = no such curve, though single readings can be large or run the other way. Potencies of inconclusive entries are doubtful fits and often do not repeat. % is set by controls: 0 for no effect and ±100 for the full control effect; potency is the fitted concentration of half-maximal effect."}
{"target": "DNA polymerase beta (Homo sapiens) (UniProt P06746)", "assay": "qHTS Assay for Inhibitors of DNA Polymerase Beta", "conditions": "Pol beta primer extension/strand displacement, fluorescence kinetic; activity change, negative = inhibition: at 114 µM (top of the series)", "method_in_brief": "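10 nM enzyme + cpd, 15 min RT; start with substrate 50 nM final; read 0 min and after 10 min RT. Corrected, normalized data; 4-parameter Hill curve fit.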"}
{"smiles": "Cc1onc(-c2ccccc2)c1C(=O)Oc1cccnc1", "Potency": "inconclusive: 100 µM [inhibitor, single point]"}
{"smiles": "COc1ccc(NS(=O)(=O)c2cccs2)cn1", "Potency": "inconclusive: 89.1 µM [inhibitor, single point]"}
{"smiles": "CSC1=C(C#N)C(c2ccccc2)C(C(C)=O)=C(C)N1", "note": "(configuration not stated)", "Potency": "inconclusive: 39.8 µM [inhibitor, single point]"}
{"smiles": "CCC(=O)N1CCc2cc(Br)cc(S(=O)(=O)CCC(=O)NCCc3ccccc3Cl)c21", "Potency": "inconclusive: 25.1 µM [inhibitor, full curve]"}
{"smiles": "COCc1cc(N2CCCCC2)nc(-c2ccccc2)n1", "Potency": "inactive"}
{"smiles": "Cn1c(N/N=C/c2c[nH]c3ccccc23)nc2ccccc21", "Potency": "inconclusive: 39.8 µM [inhibitor, partial curve]"}
{"smiles": "CCOc1ccc(-c2nc(SCC(=O)Nc3ccc4c(c3)OCCO4)c(-c3ccc(F)cc3)[nH]2)cc1", "Potency": "inconclusive: 70.8 µM [inhibitor, partial curve]"}
{"smiles": "COc1cc2[nH]c(=S)n(C3CC3)c(=O)c2cc1OC", "Potency": "inconclusive: 89.1 µM [inhibitor, single point]"}
{"smiles": "Cn1c2ccccc2c2cc(/C=N/NC(=O)c3cc(O)ccc3O)ccc21", "Potency": "active: 10 µM"}
{"smiles": "N#Cc1ncc(Cl)c2ccccc12", "Potency": "inconclusive: 3.98 µM [inhibitor, full curve, poor fit]"}
{"smiles": "COc1cc(/C=N/NC(=O)c2ccccc2O)ccc1OCC(=O)Nc1ccccc1", "Potency": "active: 6.31 µM"}
{"smiles": "O=C(N/N=C/c1ccncc1)c1sc2ccccc2c1Cl", "activity change, negative = inhibition": "inconclusive: -63% [inhibitor]"}
{"smiles": "COc1ccc(S(=O)(=O)N2CCCOC2CNC(=O)C(=O)NC2CCCC2)cc1", "note": "(configuration not stated)", "Potency": "inconclusive: 0.158 µM [inhibitor, full curve, poor fit]"}
{"smiles": "c1ccc(OCc2nnc3sc(C4COc5ccccc5O4)nn23)cc1", "note": "(configuration not stated)", "Potency": "inconclusive: 28.2 µM [inhibitor, partial curve]"}
{"smiles": "CCn1cc(C(=O)O)c(=O)c2cc(F)c(N3CCN(C(=S)NC(=O)c4c(OC)cccc4OC)CC3)cc21", "Potency": "inconclusive: 44.7 µM [inhibitor, partial curve, poor fit]"}
{"smiles": "O=C(CSc1nc(O)cc(=O)n1-c1ccccc1)Nc1ccc2c3c(cccc13)CC2", "Potency": "active: 35.5 µM"}
{"smiles": "O=C(c1ccco1)N1CCN(CCCCOc2cccc3ccccc23)CC1", "Potency": "inactive"}
{"smiles": "CCCCc1ccc(NC(=O)COc2cccc3c(=O)n(C)ccc23)cc1", "Potency": "inconclusive: 3.98 µM [inhibitor, full curve, poor fit]"}
{"smiles": "O=C(O)Cn1cnc2scc(-c3cccs3)c2c1=O", "Potency": "active: 20 µM"}
{"smiles": "O=c1[nH]c(=O)n(C2CCCO2)cc1Br", "note": "(configuration not stated)", "Potency": "inconclusive: 100 µM [inhibitor, single point]"}
{"smiles": "COc1ccc(-n2c(SCc3ccccc3F)nc3c([nH]c4ccccc43)c2=O)cc1", "Potency": "inactive"}
{"smiles": "Cc1ccccc1CSc1nnc2[nH]c(=O)cc(C)n12", "Potency": "inactive"}
{"smiles": "O=C(Cn1cc(S(=O)(=O)Cc2ccc(F)cc2)c2ccccc21)NCc1ccccc1Cl", "Potency": "inconclusive: 50.1 µM [inhibitor, single point]"}
{"smiles": "CNc1nnc(-c2ccncc2)s1", "Potency": "inconclusive: 89.1 µM [inhibitor, single point]"}
{"smiles": "O=C(NC1CC(=O)N(c2ccc(Cl)cc2)C1)c1ccc(S(=O)(=O)N2CCCC2)cc1", "note": "(configuration not stated)", "Potency": "inactive"}
{"smiles": "NC(N)=Nc1ccc(N=C(N)N)cc1", "Potency": "inconclusive: 28.2 µM [inhibitor, partial curve]"}
{"smiles": "COc1ccc(NC(=O)c2cc(-c3ccccc3)on2)cc1OC", "Potency": "inactive"}
{"smiles": "Nc1c(C(=O)Nc2ccc(Br)cc2)sc2nc(-c3ccco3)ccc12", "Potency": "inactive"}
{"smiles": "O=C1CSC(=S)N1/N=C/c1ccc(Cl)c([N+](=O)[O-])c1", "Potency": "active: 22.4 µM"}
{"smiles": "COc1ccc(-c2cc(C(=O)NCc3ccccc3)c3c(-c4ccccc4)[nH]nc3n2)cc1", "Potency": "inactive"}
{"smiles": "CC1CCN(C(=O)Cn2ncc3c4ccccc4n(Cc4ccc(Cl)cc4)c3c2=O)CC1", "Potency": "inconclusive: 25.1 µM [inhibitor, full curve]"}
{"smiles": "CCN(CC)C(=O)c1cc(Cl)ccn1", "Potency": "inactive"}
{"smiles": "CCOc1ccc(CNC(=O)C2CCN(c3nnc(C)c4c(C)n(-c5ccc(C)cc5)nc34)CC2)cc1", "Potency": "active: 7.94 µM"}
{"smiles": "Cc1ccc(NC(=O)c2ccc3c(SCC(=O)O)c4c(nc3c2)CCCC4)c(Br)c1", "Potency": "inconclusive: 70.8 µM [inhibitor, single point]"}
{"smiles": "COC(=O)c1cc(C(=O)N2CCN(c3cccc(C)c3C)CC2)cc([N+](=O)[O-])c1", "Potency": "inconclusive: 39.8 µM [inhibitor, single point]"}
{"smiles": "COc1ccc(C(=O)N/N=C/c2ccc(OC(=O)c3cccs3)cc2)cc1", "Potency": "inactive"}
{"smiles": "N#CNC(=Nc1cccc(F)c1)SCc1cccc(F)c1", "Potency": "inconclusive: 31.6 µM [inhibitor, full curve]"}
{"smiles": "Cc1ccc(CNC(=O)c2nnn(CC(=O)Nc3cc(C)cc(C)c3)c2N)cc1", "Potency": "inconclusive: 89.1 µM [inhibitor, single point]"}
{"smiles": "O=c1c2c([nH]c3ccccc13)C(=C1CCCC1)CC2", "Potency": "active: 31.6 µM"}
{"smiles": "Cc1ccc(C)c(/C=C/C(=O)c2ccccc(=O)c2O)c1", "Potency": "inconclusive: 89.1 µM [inhibitor, single point]"}
{"smiles": "COc1ccc(N2CC(C(=O)Nc3nnc(SCc4ccccn4)s3)CC2=O)cc1", "note": "(configuration not stated)", "Potency": "inconclusive: 25.1 µM [inhibitor, single point]"}
{"smiles": "CCN(CC)CCCNC(=O)c1ccc2nc(CCc3ccccc3)oc2c1", "Potency": "inactive"}
{"smiles": "C=CCNCCOc1c(C)cc(C)cc1Cl", "Potency": "inconclusive: 31.6 µM [inhibitor, single point]"}
{"smiles": "O=C(CSc1ncccn1)N/N=C/c1ccc(OC2CSC2)cc1", "Potency": "inactive"}
{"smiles": "CCN(CC)c1ccc(NC(=O)C2COc3ccc(OC)cc3C2)c(C)c1", "note": "(configuration not stated)", "Potency": "inactive"}
{"smiles": "C=C1SC(=Nc2ccccc2Cl)N(C(=O)c2sc3ccccc3c2Cl)C1(C)C", "Potency": "inconclusive: 22.4 µM [inhibitor, partial curve, poor fit]"}
{"smiles": "CC(C)NC(=O)CSCc1c(Cl)cccc1Cl", "Potency": "inconclusive: 89.1 µM [inhibitor, single point]"}
{"smiles": "CN(C)c1ccc(NC(=O)Cn2c(SCc3ccccc3F)nc3cccnc32)cc1", "Potency": "inactive"}
{"smiles": "O=c1c2c3c(sc2n2cnnc2n1CCc1ccccc1)CCCC3", "Potency": "inconclusive: 39.8 µM [inhibitor, partial curve, poor fit]"}
{"smiles": "COc1ccc(-c2nnc(SCC(=O)Nc3ccc(F)cc3)s2)cc1", "Potency": "inactive"}
{"smiles": "Cc1cc(N2CCN(C(c3ccccc3)c3ccc(Cl)cc3)CC2)n2ncnc2n1", "note": "(configuration not stated)", "Potency": "inconclusive: 89.1 µM [inhibitor, single point]"}
{"smiles": "CCOC(=O)c1ccccc1NC(=O)Cn1c(=O)n(Cc2ccccc2)c(=O)c2c(C)c(C)sc21", "Potency": "inconclusive: 79.4 µM [inhibitor, single point]"}
{"smiles": "CN(C(=O)Cn1nnc(-c2cccc(C(F)(F)F)c2)n1)C1CCCCC1", "Potency": "inconclusive: 0.631 µM [inhibitor, full curve, poor fit]"}
{"smiles": "Cc1ccccc1Nc1nc(-c2sc(NC(=O)c3ccco3)nc2C)cs1", "Potency": "inconclusive: 11.2 µM [inhibitor, full curve, poor fit]"}
{"smiles": "Cc1nnc(SCC(=O)NCc2ccccc2F)c2nn(-c3ccc(Cl)cc3)c(C)c12", "Potency": "inconclusive: 39.8 µM [inhibitor, partial curve]"}
{"smiles": "CCOC(=O)N1CCN(C(=S)Nc2ccc(C)c(C)c2)CC1", "Potency": "inconclusive: 70.8 µM [inhibitor, partial curve]"}
{"smiles": "Cc1ccc(-c2nc(SCc3ccc(Br)cc3)n3[nH]c(=O)cc3n2)cc1", "Potency": "inconclusive: 3.16 µM [inhibitor, full curve, poor fit]"}
{"smiles": "O=c1nc2s/c(=C\\c3ccco3)c(=O)n2nc1Cc1ccccc1", "Potency": "active: 14.1 µM"}
{"smiles": "COc1cc(NC(=O)c2nccn2C)cc(C(=O)Nc2cccc(C(F)(F)F)c2)c1", "Potency": "inconclusive: 50.1 µM [inhibitor, partial curve]"}
{"smiles": "CCCCN1CC(O)=C(c2nc(-c3ccc(Br)cc3)cs2)C1=N", "Potency": "active: 5.01 µM"}
{"smiles": "O=C(COC(=O)/C=C/c1ccco1)NCc1ccccc1Cl", "Potency": "inconclusive: 44.7 µM [inhibitor, partial curve, poor fit]"}
{"smiles": "CCn1c(SCC(=O)N/N=C/C(C)=C\\c2ccco2)nnc1-c1ccccc1", "Potency": "active: 28.2 µM"}
{"smiles": "COc1ccc(Cc2nnc(N/N=C/c3ccc(O)cc3O)[nH]c2=O)cc1OC", "Potency": "inconclusive: 50.1 µM [inhibitor, partial curve]"}
{"smiles": "N#Cc1c(N)oc(-c2ccc3c(c2)OCO3)c1-c1ccc2c(c1)OCO2", "Potency": "inconclusive: 22.4 µM [inhibitor, partial curve, poor fit]"}
{"smiles": "CCC1CN(C(=O)N2CCC(C(=O)NCc3cccs3)CC2)c2cc(C)ccc2O1", "note": "(configuration not stated)", "Potency": "inactive"}
{"smiles": "CCCCCn1c(=O)[nH]c2cc(C(=O)Nc3ccc(F)cc3)ccc2c1=O", "Potency": "inconclusive: 10 µM [inhibitor, partial curve]"}
{"smiles": "COc1ccc(-c2c[n+]3c(n2-c2ccccc2)SCC3)cc1OC", "Potency": "inconclusive: 20 µM [inhibitor, full curve, poor fit]"}
{"smiles": "Cc1nnc(SCC(=O)Nc2sccc2C#N)s1", "Potency": "active: 31.6 µM"}
{"smiles": "COc1ccc(C(=O)NCCn2cc(SCc3c(F)cccc3Cl)c3ccccc32)cc1", "Potency": "inactive"}
{"smiles": "CC(C(=O)NC1C(=O)N2C(C(=O)O)=C(CSc3nnnn3C)CSC12)n1cc(Cl)cn1", "note": "(configuration not stated)", "Potency": "inconclusive: 11.2 µM [inhibitor, partial curve, poor fit]"}
{"smiles": "COc1ccc(CC(=O)Nc2ccc(S(=O)(=O)Nc3nccc(C)n3)cc2)cc1", "Potency": "inactive"}
